In all, about 1,400 compounds went through this assay and about 50 (4%) were called active.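 The calls were made as follows: active = fitted curve reaches 30% CPE protection at or below the top valid dose, with every test run called active; inconclusive = test runs disagree, some active and some not; inactive = every test run inactive, including effects in the wrong direction.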 The list shows a part of the results. Results with a measured potency or affinity are listed apart.
experiment: Dengue virus 2 cytopathic effect protection, dose response, BHK-21 cells, ATP luminescence, cherry-pick (AID 687031); conditions: BHK-21 DENV2 CPE protection, 5 d; at 19.5 µM (top of the series) unless noted;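 also: 0% = infected DMSO wells and 100% = uninfected cell wells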

CPE protection (higher = active), inactive:
C/C(CC(=O)Nc1ccc(Cl)c(Cl)c1)=N\NC(=O)Cc1ccccc1 -30.9%
Cc1cc(C)n2c(NC3CCCCC3)c(-c3ccccn3)nc2n1 -20.9%
Cc1ccc2nc(-c3cccc(Br)c3)c(Cc3ccsc3)n2c1 -1.55%
CCOc1ccc(N(CC(=O)NC2CCCC(C)C2C)S(=O)(=O)c2c(C)noc2C)cc1 (stereo not drawn) -13.2%
O=C(COC(=O)c1ccc(Cl)nc1)Nc1ccc(N2CCCCC2)cc1 -5.9%
Cc1cc(C(=O)N[C@@H](c2ccccc2)[C@]2(C)C[C@H]2[C@@H](C)C(=O)Nc2ccc3ccccc3c2)no1 -7.01%
O=S(=O)(Cc1cc(N2CCOCC2)nc(-c2ccccn2)n1)c1ccccc1 -19.3%
CCCC(=O)N(Cc1cc(=O)[nH]c2ccccc12)c1cccc(C)c1 -5.24%
CO[C@@H]1CN(C)C(=O)c2cc(NC(=O)c3ccccc3)ccc2OC[C@H](C)N(C(=O)C2CC2)C[C@@H]1C 9.26%
CCOC(=O)[C@]12CCC=C1N(Cc1cccc3ccccc13)C(=O)[C@H](CC(=O)N1CCCC1)C2 -0.647%
COc1cccc(S(=O)(=O)N2CC3(CN(C(=O)Nc4ccc(F)cc4)[C@H](CO)c4[nH]c5cc(OC)ccc5c43)C2)c1 6.53%
O=C(Nc1ccc2c(c1)OCCO2)c1cccc(C(=O)Nc2ccc3c(c2)OCCO3)c1 16.2%
Cn1ccc2c(-c3cccc(C=O)c3)cc3c(c21)C1CCC3O1 (stereo not drawn) -2.67%
O=C(CNC(=O)N1CC(=O)Nc2ccccc21)NCc1ccc(F)cc1 13.8%
CCCNC(=O)C1(C)CCCN(Cc2ccc(C#N)cc2)C1 (stereo not drawn) -18%
COc1ccc(C(=O)OCc2c(-c3cccc(OC)c3)ncc3ccccc23)cc1 6.97%
Cc1cccc(C)c1-n1nnnc1C1(C)CCC(=O)N1Cc1cccnc1 (stereo not drawn) 14.1%
CC(C)c1ccccc1OCCCCN1CCCCC1 12.7%
COC(=O)[C@@H]1C[C@H]2CC[C@H](O)C[C@H]2N1Cc1ccc(C(F)(F)F)cc1 2.97%
CCCCN1C(=O)C(CC(=O)NC2CC2)CC(C(=O)N(CC)CC)=C1C (stereo not drawn) 17.3%
O=C(c1ccccc1F)N1CCC2CC1c1cc(N3CCCCC3)ccc12 (stereo not drawn) -27%
CNc1cc(-c2ccc(O)cc2C)ncn1 -18%
O=C(C[C@H]1CC[C@@H]2[C@H](COC[C@H](O)CN2C(=O)Cc2ccccc2)O1)NC1CCCC1 2.96% [at 21 µM]
C[C@H](CO)N1C[C@H](C)[C@H](CN(C)C(=O)c2ccccc2)Oc2cc(C3=CCCCC3)ccc2S1(=O)=O -19.4%
CCC1CN(S(=O)(=O)c2ccc3c(c2)NC(=O)CC(=O)N3)c2cc(Cl)ccc2O1 (stereo not drawn) -4.24%
COc1ccc(-c2cnc3n2CCCCC3)cc1 11.5%
CCc1ccccc1OCC(=O)NNCC(=O)Nc1cccc(C#N)c1 -16%
COc1cc2cc(CCCOC(=O)CCC(=O)O)oc(=O)c2cc1OC 11.1%
O=C(Nc1ccccc1C(=O)NCc1cccnc1)c1ccccc1Cl -2.23%
Cc1nc2ccc(C(=O)NC(C)(C)C)cn2c1N(C)C(=O)CCc1ccccc1 8.15%
O=C(Nc1ccc2c(c1)CCC2)c1ccccc1 8.37%
O=C(NC1CCCCC1)N[C@H]1C=C[C@@H](CC(=O)N2CCOCC2)O[C@@H]1CO 15.7%
C=Cc1ccc(Cn2c(C)c(C(=O)NCc3cccc(C(F)(F)F)c3)sc2=O)cc1 -21.6%
C=CCOc1ccccc1CNn1c(C)n[nH]c1=S -9.34%
Cc1cc(OCc2cc(C(=O)N(C)C(C)c3ccccn3)no2)cc(C)c1Cl (stereo not drawn) -3.99%
Cc1c(C)c2c(OCC(=O)N3CCC(O)CC3)cc3c(c2oc1=O)CCC(C)(C)O3 11%
CC(C)c1ccc(S(=O)(=O)N2CCN(C(=O)n3ccnc3)CC2)cc1 3.32%
CCN(CC)CCCNc1nc(C)cc(COC)c1C#N 8.73%
COCCNC(=O)C1CC2Cn3c(nc4cc(C)c(C)cc43)C2N1C (stereo not drawn) -5.68%
CCNC(=O)C[C@H]1CC[C@H]2[C@@H](COC[C@H](O)CN2Cc2ccc(Cl)c(Cl)c2)O1 10.1%
CCOc1ccc(C(=O)Nc2ccc(CN3CCOCC3)cc2)cc1Br 5.95%
COc1ccc(CN2CCC[C@]3(N[C@H](c4ccc(OC)cc4)[C@@H]4C(=O)N(C)C(=O)[C@@H]43)C2=O)cc1 14.6%
C[C@H]1CN([C@@H](C)CO)C(=O)c2cccc(NS(=O)(=O)c3ccccc3)c2O[C@@H]1CN(C)Cc1ccc(Cl)c(Cl)c1 -23.7%
CCCN(C)C1CN(Cc2cn(Cc3ccc(C)cc3)nn2)S(=O)(=O)C1 (stereo not drawn) 6.39%
C[C@@H]1CN([C@H](C)CO)C(=O)c2cccc(NC(=O)Nc3ccc4c(c3)OCO4)c2O[C@H]1CN(C)C(=O)Nc1ccccc1 -7.43%
COc1ccc(NC(=O)CN2CCc3ccccc3C2)cc1S(=O)(=O)N1CCOCC1 -7.67%
COc1ccc(S(=O)(=O)N2CCCC2C(=O)NCC(=O)Nc2cccc(Cl)c2C)cc1 (stereo not drawn) 4.58%
COc1ccc2c(C)c(CCC(=O)NC3CC3)c(=O)oc2c1C -2.98%
COC(=O)c1ccc2nc(-c3ccc(C#N)cc3)c(Cc3cccc(F)c3)n2c1 -9.85%
COc1ccc(NC(=O)CN(C)CCOc2ccc(Cl)cc2)cc1OC 22.6%
O=C(NCC[C@H]1CC[C@H](NS(=O)(=O)c2ccc(Oc3ccccc3)cc2)[C@@H](CO)O1)C1CC1 10.4%
CN(C[C@H](Cc1ccccc1)N(C[C@@H](CC1CCCCC1)N(CCc1ccccc1)N=O)N=O)N=O -3.85%
COc1cc(NC(C)=O)c2ncccc2c1Br -3.36%

3 records drawn at random from the list so far, as already listed:
CPE protection (higher = active), inactive:
CN(C[C@H](Cc1ccccc1)N(C[C@@H](CC1CCCCC1)N(CCc1ccccc1)N=O)N=O)N=O -3.85%
COc1ccc2c(C)c(CCC(=O)NC3CC3)c(=O)oc2c1C -2.98%
CCN(CC)CCCNc1nc(C)cc(COC)c1C#N 8.73%

From PubChem BioAssay AID687031 (Broad Institute, 2013)
